Counter-ions that a name gives are not always drawn. Some of the results follow. Most values come without repeats; read them as rough.
Tested on: Reh
Test: S-phase gammaH2AX median, Z-score vs plate median (drug alone); higher = more S-phase DNA damage
Conditions: MK1775 concentration 0 nM; 10 µM; 4 h

Structure (SMILES) | S-phase gammaH2AX median (Z-score)
OCCn1cc(-c2ccc3c(c2)CC/C3=N\O)c(-c2ccncc2)n1 | 0.138
Cc1ccc(-c2cc(C(F)(F)F)nn2-c2ccc(S(N)(=O)=O)cc2)cc1 [Celecoxib] | -0.00812
CC(C)[N+]1(C)[C@@H]2CC[C@H]1C[C@@H](OC(=O)C(CO)c1ccccc1)C2 (stereo partly specified) [Ipratropium bromide] | 0.0283
CC(C)(C)c1cc(NC(=O)Nc2ccc(-c3cn4c(n3)sc3cc(OCCN5CCOCC5)ccc34)cc2)no1 [Quizartinib (AC220)] | 0.0599
C=C/C(C)=C/[C@@]1(C)SC(=O)C(C)=C1O [Thiolactomycin] | -0.0071
COc1ccc2c(c1)c(CC(=O)O)c(C)n2C(=O)c1ccccc1 [1-benzoyl-5-methoxy-2-methylindole-3-acetic acid] | 0.0641
O=C(/C=C/c1cccc(S(=O)(=O)Nc2ccccc2)c1)NO [Belinostat (PXD101)] | 0.177
COc1ccc2c3n(c(=NC(=O)c4cccnc4)nc2c1OC)CCN3 | -0.0932
CCN(CC)CCOCCOC(=O)C1(c2ccccc2)CCCC1 [Carbetapentane citrate] | -0.0155
Cc1cc(C(C)(C)C)cc(C)c1CC1=NCCN1 [Xylometazoline hydrochloride] | 0.147
O=c1[nH]ccc2c(O)cccc12 [1,5-Isoquinolinediol] | 0.142
O=C(c1cc(O)c(O)c([N+](=O)[O-])c1)c1ccccc1F | 0.487
COc1cc2nc(N3CCN(C(=O)C4COc5ccccc5O4)CC3)nc(N)c2cc1OC (stereo unspecified) [Doxazosin mesylate] | -0.239
CNC(=O)c1ccc(N2C(=S)N(c3ccc(C#N)c(C(F)(F)F)c3)C(=O)C2(C)C)cc1F [MDV3100 (Enzalutamide)] | 0.0947
N[C@H]1CONC1=O [L-Cycloserine] | -0.00971
CCCOc1ccccc1-c1nc2[nH]nnc2c(=O)[nH]1 [Zaprinast] | -0.24
CC#C[C@]1(O)CC[C@H]2[C@@H]3CCC4=CC(=O)CCC4=C3[C@@H](c3ccc(N(C)C)cc3)C[C@@]21C [Mifepristone] | 0.166
CC#C[C@]1(O)CC[C@H]2[C@@H]3CCC4=CC(=O)CCC4=C3[C@@H](c3ccc(N(C)C)cc3)C[C@@]21C [Mifepristone (Mifeprex)] | 0.279
CC[C@@H]1C(=O)N(C)c2cnc(Nc3ccc(C(=O)N[C@H]4CC[C@H](N5CCN(CC6CC6)CC5)CC4)cc3OC)nc2N1C(C)C [BI6727 (Volasertib)] | -0.152
COc1ccc(Cl)cc1C(=O)NCCc1ccc(S(=O)(=O)NC(=O)NC2CCCCC2)cc1 [Glibenclamide] | 0.101
O=c1ccn([C@@H]2O[C@H](COP(=O)(O)OP(=O)(O)O)[C@@H](O)[C@H]2O)c(=O)[nH]1 [Uridine 5'-diphosphate sodium] | 0.133
CC(C(O)c1ccc(O)cc1)N1CCC(Cc2ccccc2)CC1 (stereo unspecified) [Ifenprodil tartrate] | 0.126
Cc1ccc(OCC(O)C(C)NC(C)C)c2c1CCC2 (stereo unspecified) [ICI 118,551 hydrochloride] | -0.189
O=C(O)C1=CC(=C(c2ccc(O)c(C(=O)O)c2)c2ccc(O)c(C(=O)O)c2)C=CC1=O [Aurintricarboxylic acid] | -0.0641
NC(C(=O)O)C(O)C(=O)O (racemic) [DL-threo-beta-hydroxyaspartic acid] | 0.0693
Cn1cc(C(F)(F)F)nc1-c1ccc(OCC(O)CNCCOc2ccc(O)c(C(N)=O)c2)cc1 (stereo unspecified) | -0.0408

Structure (SMILES) | S-phase gammaH2AX median (Z-score)
COc1nc(C)cnc1NS(=O)(=O)c1cccnc1-c1ccc(-c2nnco2)cc1 [Zibotentan (ZD4054)] | 0.0329
CN1[C@@H]2CC[C@H]1C[C@@H](OC(c1ccccc1)c1ccccc1)C2 [Benztropine mesylate] | 0.00194
C[N+](C)(C)CCC(=O)c1cccc2ccccc12 [2-(alpha-Naphthoyl)ethyltrimethylammonium iodide] | -0.0781
CC1(C)C(=O)N(CCN2CCC(C(=O)c3ccc(F)cc3)CC2)c2ccccc21 [LY-310,762 hydrochloride] | -0.132
NC(=O)Nc1sc(-c2ccc(F)cc2)cc1C(N)=O | -0.053
CCCCC1C(=O)N(c2ccccc2)N(c2ccccc2)C1=O [Phenylbutazone] | 0.17
N=C(N)SCCN [2-(2-Aminoethyl)isothiourea dihydrobromide] | -0.0796
COc1cc2ncnc(Nc3ccc(F)c(Cl)c3)c2cc1NC(=O)/C=C/CN1CCCCC1 | 0.11
Nc1nccc(-c2ccc3noc(-c4ccc(Cl)cc4)c3c2)n1 [PIM-1 Inhibitor 2] | 0.191
Cc1ccc(C(=O)N(CCCN)[C@@H](c2nc3cc(Cl)ccc3c(=O)n2Cc2ccccc2)C(C)C)cc1 | -0.136
N=C(N)N1CCc2ccccc2C1 [Debrisoquin sulfate] | 0.0189
O=C(O)Cc1ccc(O)c(O)c1 [3,4-Dihydroxyphenylacetic acid] | -0.0882
C[C@@H](Oc1cc(-c2cnn(C3CCNCC3)c2)cnc1N)c1c(Cl)ccc(F)c1Cl | -0.12
Nc1c(S(=O)(=O)O)cc(Nc2ccc(Nc3nc(Cl)nc(Nc4cccc(S(=O)(=O)O)c4)n3)c(S(=O)(=O)O)c2)c2c1C(=O)c1ccccc1C2=O [Reactive Blue 2] | 0.474
CC(C)C1C2CCC(C2)C1N (stereo unspecified) | 0.00388
CNCC[C@@H](Oc1ccccc1C)c1ccccc1 [Tomoxetine] | 0.621
c1ccc(CN2CCC3(CCCc4ccccc43)CC2)cc1 [L-687,384 hydrochloride] | -0.0993
Cc1cccc(C)c1NC(=O)C[N+](C)(C)C [Lidocaine N-methyl hydrochloride] | 0.0819
O=C(OCCN1CCCCC1)c1c[nH]c2ccccc12 | 0.0472
CCCn1c(=O)c2[nH]c(-c3ccc(OCC(=O)NCCN)cc3)nc2n(CCC)c1=O [Xanthine amine congener] | -0.908
Nc1ccccc1NC(=O)c1ccc(CNc2nccc(-c3cccnc3)n2)cc1 [Mocetinostat (MGCD0103)] | 0.153
C[C@H](CCC(=O)NCCS(=O)(=O)O)[C@H]1CC[C@H]2[C@@H]3[C@H](O)C[C@@H]4C[C@H](O)CC[C@]4(C)[C@H]3C[C@H](O)[C@]12C [Sodium Taurocholate] | 0.0408
CC1=C(C(=O)O)N2C(=O)[C@@H](NC(=O)[C@H](N)c3ccccc3)[C@H]2SC1 [Cephalexin hydrate] | 0.113
CCCc1c(OCCCOc2ccc(OCC(=O)O)cc2)ccc(C(C)=O)c1O | -0.173
CCSC(N)=Nc1ccc(C(F)(F)F)cc1 [TFPI hydrochloride] | -0.327
O=c1c2ccccc2[nH]c(=S)n1CCN1CCC(=C(c2ccc(F)cc2)c2ccc(F)cc2)CC1 [Diacylglycerol Kinase Inhibitor II] | 0.0535

Structure (SMILES) | S-phase gammaH2AX median (Z-score)
CC[C@@H]1Cc2cc(O)ccc2C2=C1c1ccc(O)cc1C[C@H]2CC [(R,R)-cis-Diethyl tetrahydro-2,8-chrysenediol] | -0.104
Oc1cc(O)cc(/C=C/c2ccc(O)c(O)c2)c1 [Piceatannol] | 0.0497
Nc1nnc(-c2cccc(Cl)c2Cl)c(N)n1 [Lamotrigine] | -0.11
CC[C@@]1(O)C(=O)OCc2c1cc1n(c2=O)Cc2cc3c(CN(C)C)c(O)ccc3nc2-1 [Topotecan HCl] | 6.35
O=C1c2ccccc2-c2nc3nonc3nc21 | 1.64
CC(=O)O[C@]1(C(C)=O)CC[C@H]2[C@@H]3C=C(C)C4=CC(=O)CC[C@]4(C)[C@H]3CC[C@@]21C [Megestrol Acetate] | 0.0584
Cc1cccc(C2CN(C)CCc3c2cc(O)c(O)c3Cl)c1 (stereo unspecified) | 0.207
Cc1nc(N=Nc2cc(S(=O)(=O)O)c3cc([N+](=O)[O-])cc(S(=O)(=O)O)c3c2)c(COP(=O)(O)O)c(C=O)c1O [PPNDS tetrasodium] | -0.0071
O=c1[nH]c2cc(Cl)c(Cl)cc2[nH]c1=O [6,7-Dichloroquinoxaline-2,3-dione] | 0.0661
O=C1OC(=O)[C@H]2[C@@H]1[C@@H]1CC[C@H]2O1 [Norcantharidin] | -0.0118
Cc1nnc(SCC2=C(C(=O)O)N3C(=O)[C@@H](NC(=O)Cn4cnnn4)[C@H]3SC2)s1 [Cefazolin sodium] | 0.0583
Cn1cncc1[C@@](N)(c1ccc(Cl)cc1)c1ccc2c(c1)c(-c1cccc(Cl)c1)cc(=O)n2C [Tipifarnib (Zarnestra)] | 0.122
CN1C2CCC1CC(NC(=O)c1nn(C)c3ccccc13)C2 (stereo unspecified) [LY-278,584 maleate] | 0.18
CCCCC1(C2CCCC2)Cc2cc(OCC(=O)O)c(Cl)c(Cl)c2C1=O (stereo in doubt) [R(+)-Butylindazone] | 0.132
NCCCCN [Putrescine dihydrochloride] | 0.4
O=C(NCCCNc1nc(Nc2cccc(NC(=O)N3CCCC3)c2)ncc1I)c1cccs1 | -0.0321
NCCC(=O)NCCc1c[nH]cn1 [Carcinine dihydrochloride] | -0.0155
O=C1Nc2ccc(I)cc2/C1=C/c1cc(Br)c(O)c(Br)c1 | 0.126
Cc1ccccc1N1CCN(S(=O)(=O)C[C@]23CC[C@H](CC2NC(=O)[C@@H](N)CCS(C)(=O)=O)C3(C)C)CC1 (stereo partly specified) | -0.132
O=C1N=C(O)NC1(c1ccccc1)c1ccccc1 [Phenytoin sodium] | 0.142
COc1cc2c(cc1OC)-c1c/c(=N\c3c(C)cc(C)cc3C)n(C)c(=O)n1CC2 [Trequinsin hydrochloride] | -0.34
Oc1nc(-c2ccc(C(F)(F)F)cc2)nc2c1CSCC2 | -0.0128
Cc1cnc(-c2cnc(NCCNc3ccc(C#N)cn3)nc2-c2ccc(Cl)cc2Cl)[nH]1 | -0.0561
CNCc1ccc(-c2[nH]c3cc(F)cc4c3c2CCNC4=O)cc1 | 0.353
